Results are given in words; binding and its absence hold for the method and conditions named. In cells and extracts the contact can be indirect. These calls come from enrichment with a bait or labelling near it, and not all partners need be listed.
Biological target: SETDB1 (endogenous, E14 mESC) (mouse (endogenous in E14 mESC)) (UniProt O88974)
Experiment: affinity purification with mass spectrometry

Sequences of proteins named here, by UniProt entry; tags and fusion partners are left off.
UniProt Q9CW03: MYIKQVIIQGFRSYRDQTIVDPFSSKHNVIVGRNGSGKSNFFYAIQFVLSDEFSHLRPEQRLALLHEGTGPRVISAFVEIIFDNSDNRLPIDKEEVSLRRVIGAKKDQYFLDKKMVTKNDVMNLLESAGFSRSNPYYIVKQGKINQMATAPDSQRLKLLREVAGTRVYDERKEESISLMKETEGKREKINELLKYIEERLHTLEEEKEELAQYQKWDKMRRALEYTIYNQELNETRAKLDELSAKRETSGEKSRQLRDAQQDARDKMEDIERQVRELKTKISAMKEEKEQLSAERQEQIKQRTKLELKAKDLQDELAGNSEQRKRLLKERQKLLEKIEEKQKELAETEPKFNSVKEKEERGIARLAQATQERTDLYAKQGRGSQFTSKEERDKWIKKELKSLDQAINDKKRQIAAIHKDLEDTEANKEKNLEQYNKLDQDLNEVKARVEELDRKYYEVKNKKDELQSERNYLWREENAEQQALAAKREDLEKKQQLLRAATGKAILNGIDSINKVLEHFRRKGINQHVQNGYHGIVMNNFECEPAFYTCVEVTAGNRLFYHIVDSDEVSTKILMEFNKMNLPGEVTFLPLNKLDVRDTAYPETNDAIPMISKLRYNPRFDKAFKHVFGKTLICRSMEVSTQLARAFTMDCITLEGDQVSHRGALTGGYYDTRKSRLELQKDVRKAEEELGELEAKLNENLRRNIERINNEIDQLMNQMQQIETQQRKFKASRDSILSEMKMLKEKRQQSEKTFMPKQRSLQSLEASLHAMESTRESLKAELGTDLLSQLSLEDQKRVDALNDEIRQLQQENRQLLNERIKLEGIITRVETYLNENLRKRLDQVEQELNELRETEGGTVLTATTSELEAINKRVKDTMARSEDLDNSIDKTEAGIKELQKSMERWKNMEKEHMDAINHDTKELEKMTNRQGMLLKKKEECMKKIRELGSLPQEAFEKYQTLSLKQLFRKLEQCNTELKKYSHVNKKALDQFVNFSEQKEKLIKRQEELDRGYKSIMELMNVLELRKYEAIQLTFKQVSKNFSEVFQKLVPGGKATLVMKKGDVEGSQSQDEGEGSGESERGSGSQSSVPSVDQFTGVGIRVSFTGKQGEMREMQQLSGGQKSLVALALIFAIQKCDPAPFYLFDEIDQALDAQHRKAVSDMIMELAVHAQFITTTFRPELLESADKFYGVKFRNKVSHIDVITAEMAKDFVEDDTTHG

Molecule: SMC3 (endogenous, E14 mESC) (from UniProt Q9CW03 1-1217)
- binding: binds

B1: SMC1A (endogenous, E14 mESC) (protein, UniProt Q9CU62 1-1233)
chain: MGFLKLIEIENFKSYKGRQIIGPFQRFTAIIGPNGSGKSNLMDAISFVLGEKTSNLRVKTLRDLIHGAPVGKPAANRAFVSMVYSEEGAEDRTFARVIVGGSSEYKINNKVVQLHEYSEELEKLGILIKARNFLVFQGAVESIAMKNPKERTALFEEISRSGELAQEYDKRKKEMVKAEEDTQFNYHRKKNIAAERKEAKQEKEEADRYQRLKDEVVRAQVQLQLFKLYHNEVEIEKLNKELASKNKEIEKDKKRMDKVEDELKEKKKELGKMMREQQQIEKEIKEKDSELNQKRPQYIKAKENTSHKIKKLEAAKKSLQNAQKHYKKRKGDMDELEKEMLSVEKARQEFEERMEEESQSQGRDLTLEENQVKKYHRLKEEASKRAATLAQELEKFNRDQKADQDRLDLEERKKVETEAKIKQKLREIEENQKRIEKLEEYITTSKQSLEEQKKLEGELTEEVEMAKRRIDEINKELNQVMEQLGDARIDRQESSRQQRKAEIMESIKRLYPGSVYGRLIDLCQPTQKKYQIAVTKVLGKNMDAIIVDSEKTGRDCIQYIKEQRGEPETFLPLDYLEVKPTDEKLRELKGAKLVIDVIRYEPPHIKKALQYACGNALVCDNVEDARRIAFGGHQRHKTVALDGTLFQKSGVISGGASDLKAKARRWDEKAVDKLKEKKERLTEELKEQMKAKRKEAELRQVQSQAHGLQMRLKYSQSDLEQTKTRHLALNLQEKSKLESELANFGPRINDIKRIIQSREREMKDLKEKMNQVEDEVFEEFCREIGVRNIREFEEEKVKRQNEIAKKRLEFENQKTRLGIQLDFEKNQLKEDQDKVHMWEQTVKKDENEIEKLKKEEQRHMKIIDETMAQLQDLKNQHLAKKSEVNDKNHEMEEIRKKLGGANKEMTHLQKEVTAIETKLEQKRSDRHNLLQACKMQDIKLPLSKGTMDDISQEEGSSQGEESVSGSQRTSSIYAREALIEIDYGDLCEDLKDAQAEEEIKQEMNTLQQKLNEQQSVLQRIAAPNMKAMEKLESVRDKFQETSDEFEAARKRAKKAKQAFEQIKKERFDRFNACFESVATNIDEIYKALSRNSSAQAFLGPENPEEPYLDGINYNCVAPGKRFRPMDNLSGGEKTVAALALLFAIHSYKPAPFFVLDEIDAALDNTNIGKVANYIKEQSTCNFQAIVISLKEEFYTKAESLIGVYPEQGDCVISKVLTFDLTKYPDANPNPNEQ
- binding: binds

Reference: doi:10.1101/2022.01.27.478011
